Results reported in PubChem BioAssay AID2685 (National Center for Advancing Translational Sciences (NCATS), 2010).
Some of the results follow. Further columns of the screen follow, without active or inactive calls. Compounds called inactive in the main read-out are mostly missing here. Potencies come from curve fits of mixed quality, noted in brackets.

Assay: qHTS Assay for Lipid Storage Modulators in Drosophila S3 Cells;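 on cell number change: cells counted by Cell Tracker Red CMTPX staining in the red channel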
Details: BODIPY lipid droplet fluorescence, 18-24 h; for cell number change: measured here: cell count max response, cells fed with added oleic acid
In short: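 Laser-scanning cytometry quantifies lipid droplet accumulation (500–530 nm total intensity; droplet/cell object ratio) in oleic acid-fed (400 uM added) Drosophila S3 cells treated with a concentration series. 20 uM Triacsin C defined 100% inhibition.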

[1] = measured here: lipid fluorescence (Fed channel) AC50, cells fed with added oleic acid
[2] = measured here: cell number channel AC50, cells fed with added oleic acid

SMILES | cell number change [%] | AC50 [1] | AC50 [2]
Cc1cccc(OC(C)C(=O)Nc2nccs2)c1 (stereo not drawn) | -2.89 | 0.00517 µM [rising, full curve, poor fit] | 
COCCCn1c(C)nnc1SCC(=O)Nc1cccc(C)c1 | -1.32 | 29.1 µM [rising, single point] | 
COc1ccccc1CNCC(O)(c1ccc(Cl)cc1)c1ccc(Cl)cc1 | -64.3 |  | 29.1 µM [falling, single point]
Cn1cc(S(=O)(=O)N2CCOCC2)cc1C(=O)Nc1cccc(Cl)c1 |  | 8.2 µM [falling, partial curve] | 
O=C(c1ccccc1)c1ccc2nc(N3CCCCC3)c3nncn3c2c1 | -3.87 | 20.6 µM [falling, single point] | 
CCS(=O)(=O)N1CCC(NC(=O)C(Cc2cccc(OC)c2OC)NC(C)=O)CC1 (stereo not drawn) | 9.71 | 20.6 µM [rising, partial curve, poor fit] | 
Cc1cc(C(=O)Nc2nncs2)oc1C | 10.2 | 10.3 µM [rising, partial curve] | 
COc1ccc(CSc2cccc3cccnc23)cc1[N+](=O)[O-] | -5.06 | 0.0184 µM [rising, full curve] | 
Cc1ccccc1Cn1c(CN2CCc3ccccc3C2)nc2c1c(=O)n(C)c(=O)n2C | 7.1 | 1.64 µM [rising, full curve, poor fit] | 
CC1CCCCC12NC(=O)N(CC(=O)Nc1cccnc1Cl)C2=O (stereo not drawn) |  |  | 6.51 µM [rising, single point]
Nn1c(SCC(=O)Nc2ccc(F)c(F)c2)nnc1C1CCCCC1 |  |  | 6.51 µM [rising, single point]
C#CCN1C(=O)S/C(=C/c2cc(C)n(CC)c2C)C1=O | -11.6 | 0.0731 µM [falling, full curve, poor fit] | 
O=C(O)Cc1sc(Nc2ccc(Cl)cc2)nc1-c1cccs1 | -39.9 | 4.11 µM [falling, single point] | 29.1 µM [falling, single point]
CC(NC(=O)c1cc(S(=O)(=O)N2CCOCC2)ccc1F)c1ccc(-n2ccnc2)cc1 (stereo not drawn) | 36.6 | 0.461 µM [rising, full curve] | 0.164 µM [rising, full curve, poor fit]
COc1ccc(-c2c(C)c3ccc(O)cc3oc2=O)cc1 |  |  | 0.0326 µM [rising, full curve, poor fit]
COc1ccc(C(=O)COc2ccc3ccc(=O)oc3c2)c(OC)c1 | -38.4 | 13 µM [falling, partial curve] | 8.2 µM [falling, partial curve]
Cc1ccc(CNS(=O)(=O)c2ccc([N+](=O)[O-])cc2)cc1 | 15 | 0.651 µM [rising, full curve] | 
O=C(COC(=O)C1(c2ccc(F)cc2)CCCC1)N1CCNC1=O | -7.21 | 0.517 µM [falling, full curve] | 0.461 µM [falling, full curve]
COCCCNc1nc2ccccc2nc1NS(=O)(=O)c1ccc(C)c(C)c1 | 34.9 |  | 14.6 µM [rising, partial curve, poor fit]
CC(C)Cc1nc2sc3c(c2c(=O)n1N)CC(C)(C)OC3 | -31.1 | 29.1 µM [falling, single point] | 32.6 µM [falling, single point]
CCN(CC)C(=O)Cn1cnc2sc(C)c(S(=O)(=O)N3CCC(C)CC3)c2c1=O | -7.66 |  | 

SMILES | cell number change [%] | AC50 [1] | AC50 [2]
Cc1cccn2c(=O)nc(SCC(=O)N3N=C(c4cccs4)CC3c3ccc(F)cc3)nc12 (stereo not drawn) |  | 0.0058 µM [falling, full curve, poor fit] | 
COc1ccc(C=O)cc1OC(=O)N1CCOCC1 | -0.901 | 1.3 µM [falling, full curve] | 
Cc1cc(C(=O)OCC(N)=O)c(C)n1-c1ccccc1 | 27.4 |  | 
CCOC(=O)CN1CC23C=CC(O2)C(C(=O)NCc2ccc(C)cc2)C3C1=O (stereo not drawn) | -9.16 | 0.092 µM [rising, full curve, poor fit] | 
Cc1snc(SCc2ccc(Cl)cc2)c1C#N | 13.9 | 16.4 µM [rising, partial curve] | 
CCn1c(SCC(=O)n2nc(C)cc2C)nnc1-c1ccc2c(c1)OCO2 | -9.94 | 0.517 µM [falling, partial curve] | 
CCN(CC)S(=O)(=O)c1ccc(-c2nnc(SCc3nnc(-c4ccc(C)cc4)o3)n2CC)cc1 | -3.32 | 0.58 µM [rising, single point] | 
COc1cccc(C2C(C(=O)c3ccc(C)o3)=C(O)C(=O)N2c2cc(C)on2)c1 (stereo not drawn) | 7.31 |  | 
CC(=O)Nc1ccc2c(c1)N(S(=O)(=O)c1cccs1)CCC2 | -16.8 |  | 1.84 µM [rising, partial curve]
COc1ccccc1NC(=O)CSc1nc(C)c2c(c1C#N)CCCC2 | 58.6 |  | 29.1 µM [rising, single point]
COc1ccccc1CNC(=O)Cn1nnnc1CN(C)C(C)C | 16.8 | 5.17 µM [rising, full curve] | 
Cn1cc(/C=C2/SC(=O)N(CC(=O)Nc3ccc4c(c3)OCO4)C2=O)c2ccccc21 | 18.7 | 32.6 µM [falling, single point] | 
C=CCn1c(=O)c(C(=O)Nc2ccccc2C)c(O)c2ccccc21 |  | 23.1 µM [falling, partial curve] | 
Nc1cc(N)nc(SCc2ccccc2)n1 |  | 6.51 µM [rising, single point] | 
COc1ccc(NC(=O)C(c2ccc(C)cc2)N(C)C(=O)CNC(C)=O)cc1 (stereo not drawn) | 3.06 | 23.1 µM [rising, single point] | 
Cc1cccc(NC(=O)/C(C#N)=C/c2ccccc2Cl)n1 | -2.13 | 3.66 µM [falling, partial curve] | 
CCC(C)NC(=O)C1CCN(S(=O)(=O)c2ccc3c(c2)CC(C)N3C(C)=O)CC1 (stereo not drawn) | 14.1 | 9.2 µM [falling, single point] | 
c1ccc(C2c3[nH]c4ccccc4c3CCN2Cc2cccn2-c2cccnc2)nc1 (stereo not drawn) | 5.34 | 0.0164 µM [rising, full curve, poor fit] | 
CC1CCc2c(sc(NC(=O)COC(=O)c3ccc(O)cc3)c2C#N)C1 (stereo not drawn) | 21.8 |  | 0.092 µM [rising, full curve, poor fit]
CCC1=NN2C(=N)/C(=C\c3cccn3-c3cccc(Cl)c3)C(=O)N=C2S1 | -53.6 |  | 
O=C(CCNS(=O)(=O)c1ccc(Br)cc1)NC1CCC(O)CC1 (stereo not drawn) | 36 | 23.1 µM [rising, partial curve, poor fit] | 0.82 µM [rising, full curve, poor fit]

Reformatted: two of the compounds above.
SMILES	cell number change [%]	AC50 [1]	AC50 [2]
COc1ccccc1CNC(=O)Cn1nnnc1CN(C)C(C)C	16.8	5.17 µM [rising, full curve]	
Cn1cc(/C=C2/SC(=O)N(CC(=O)Nc3ccc4c(c3)OCO4)C2=O)c2ccccc21	18.7	32.6 µM [falling, single point]	

(continued)

SMILES | cell number change [%] | AC50 [1] | AC50 [2]
COc1ccc(C(C(=O)NC2CCCC2)N(Cc2ccccc2)C(=O)c2nsc(Cl)c2Cl)cc1 (stereo not drawn) | -29.5 | 0.13 µM [falling, full curve, poor fit] | 
O=C(Nc1ccc(S(=O)(=O)N2CCCCC2)cc1)c1ccccc1Cl | -15.9 | 0.103 µM [falling, full curve, poor fit] | 
CC1CCN(S(=O)(=O)c2ccc3c(c2)N(CC(=O)NCCCOC(C)C)C(=O)CO3)CC1 | -7.65 |  | 
O=C(Cn1c(=O)oc2ccc(Cl)cc21)Nc1ccon1 | 21.4 |  | 
CCn1cc(C(=O)NCc2cccs2)c(=O)c2ccc(C)nc21 | -5.42 | 6.51 µM [falling, single point] | 0.00461 µM [falling, full curve, poor fit]
COc1cccc(NC(=O)c2ccc3c(c2)N(CC(=O)N2CCOCC2)C(=O)C(C)(C)O3)c1 | 1.39 | 16.4 µM [rising, partial curve] | 
CC(=O)N1CCN(CC(O)COc2ccc(OCc3ccccc3)cc2)CC1 (stereo not drawn) | -4.15 | 13 µM [rising, single point] | 
Cc1[nH]c(=O)[nH]c(=O)c1/C=N\NC(=O)CCc1ccc(OC(C)C)cc1 | 21.2 |  | 
O=[N+]([O-])c1nn(-c2ccc(Cl)cc2)n(O)c1=NCc1cccnc1 | 64.5 |  | 29.1 µM [rising, single point]
CCCCOc1ccc(C(=O)NCC(=O)N2CCN(C(=O)c3ccco3)CC2)cc1 | -21.3 |  | 
O=C(COc1ccccc1)NC1CCS(=O)(=O)C1 (stereo not drawn) | -10.7 | 1.16 µM [falling, full curve, poor fit] | 
CCCCN(Cc1ccccc1)C(=O)c1cnc2n(c1=O)CCS2 | -0.498 | 23.1 µM [rising, single point] | 
CCOc1ccc2c(c1)-c1c(ssc1=S)C(C)(C)N2 | -92.5 |  | 11.6 µM [falling, partial curve]
CC(C)CCn1nnnc1C(c1ccccc1F)N1CCC(C(N)=O)CC1 (stereo not drawn) | 12.4 | 29.1 µM [falling, single point] | 
Cc1ccc(-n2c(NN)nc3ccccc3c2=O)c(C)c1 |  | 18.4 µM [rising, partial curve] | 
O=C(CSc1ncnc2ccccc12)c1cccs1 | 31.9 | 5.17 µM [rising, full curve] | 1.03 µM [rising, partial curve, poor fit]
Cc1ccc([N+](=O)[O-])cc1Nc1nc(N2CCCC2)nc(N2CCCC2)n1 | 12 | 6.51 µM [falling, single point] | 
CN(Cc1cnccn1)C(=O)CC1C(=O)NCCN1Cc1c(F)cccc1Cl (stereo not drawn) | 12.4 |  | 
CN(CC(=O)Nc1ccc2c(c1)OCCO2)S(=O)(=O)c1ccc(Br)s1 |  | 6.51 µM [falling, single point] | 
CN(Cc1ccccc1)S(=O)(=O)c1ccc2[nH]c(=O)oc2c1 | -3.29 |  | 
